By AC50 is commonly meant the midpoint of the concentration-response curve, whichever way the signal moves.

SMILES strings stand for the structures. Some of the results follow. Further columns of the screen follow, without active or inactive calls. Compounds called inactive in the main read-out are mostly missing here. Words in brackets tell the shape of the fitted curve; partial curves, single points and poor fits give uncertain potencies.

This assay is described as follows: qHTS Assay for Lipid Storage Modulators in Drosophila S3 Cells.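 For cell number change: cells counted by Cell Tracker Red CMTPX staining in the red channel.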 To be noted: BODIPY lipid droplet fluorescence, 18-24 h; for cell number change: measured here: cell count max response, cells fed with added oleic acid. In outline: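 Drosophila S3 cells loaded with oleic acid (400 uM, as added) and compounds at several concentrations; lipid droplets imaged by 488-nm laser-scanning cytometry, 500–530 nm intensity and object ratio to cell channel. Percent activity normalized to 20 uM Triacsin C.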
(In general: qHTS replaces the single test concentration by a dilution series.)

Setting [1] is: measured here: lipid fluorescence (Fed channel) AC50, cells fed with added oleic acid.
The mark [2] stands for this setting: measured here: cell number channel AC50, cells fed with added oleic acid.

Take `COc1ccc(CN(C)CC(=O)Nc2sc3c(c2C#N)CCC3)c(OC)c1`: the AC50 under setting [1] is 29.1 µM [rising, single point].
As to `CCOC(=O)C1=C(C)C2C3C(=O)N(c4cc(C)ccc4C)C(=O)C3C1(C)C1C(=O)N(c3cc(C)ccc3C)C(=O)C21` (stereo not drawn), the cell number change stood at 3.21%. The AC50 under setting [1] is 29.1 µM [falling, single point].
For `COC(=O)C(C)Oc1ccc2c3c(c(=O)oc2c1)CCCCC3` (stereo not drawn), the AC50 is, setting by setting: under setting [2], 4.11 µM [falling, single point]; under setting [1], 6.51 µM [falling, single point].
Consider `CCOC(=O)CSc1nc(N)c(C#N)c(CC(C)C)c1C#N`, for which the cell number change came to 21.2%. The AC50 under setting [1] is 29.1 µM [rising, single point].
As to `CCOc1ccccc1N/C(=N/c1nc(C)cc(C)n1)NC(=O)Nc1ccc(Cl)c(Cl)c1`, the cell number change was 19.2%. In addition, the concentration at half-maximal activity (AC50) under setting [1] was 29.1 µM [rising, single point].
Turning to `Cn1cccc1C(=O)NC(=O)COC(=O)c1cc(S(=O)(=O)N2CCCCC2)ccc1Cl`, the cell number change is -36.1%. The concentration at half-maximal activity (AC50) under setting [2] was 29.1 µM [falling, single point]. Also, the AC50 under setting [1] was 29.1 µM [falling, single point].
In the case of `CCN(Cc1ccccc1)C(=O)CCNS(=O)(=O)c1ccc2c(c1)CC(C)N2C(C)=O` (stereo not drawn), the cell number change turned out to be 27.2%.
For the compound `CN1CCC(N(C)C(=O)c2cc(=O)c3ccccc3o2)CC1`, the cell number change is -8.14%. In addition, the AC50 under setting [1] is 0.116 µM [falling, full curve, poor fit].
For the compound `Cn1c(=O)[nH]c(=O)c2c1nc(N1CCCCCC1)n2CC(=O)c1ccccc1`, the cell number change is -11.6%. Besides, the AC50 under setting [1] was 0.00461 µM [falling, full curve, poor fit].
For the compound `CCn1c(SCC(=O)Nc2nc(C)c(C(=O)OC)s2)nnc1C(C)C`, the cell number change turned out to be 3.19%. Further, the AC50 under setting [1] was 13 µM [rising, single point].
For `Cc1nnc(N2CCCC(C(=O)NCc3ccccc3F)C2)c2nn(-c3ccccc3)c(C)c12` (stereo not drawn), the cell number change worked out at 9.54%. The AC50 under setting [1] was 0.146 µM [falling, full curve, poor fit].
In the case of `COc1ccccc1-c1cc(C(=O)NCc2ccco2)no1`, the cell number change is -14.5%.
`Fc1ccc2c(c1)/C(=N/Nc1ccccn1)CCS2`: the cell number change was 24.9%. The AC50 under setting [1] is 20.6 µM [rising, single point].
With `CCOc1ccc(OCC)c(NC(=O)CCn2cccc2)c1`, the cell number change was -7.58%. Moreover, under setting [1], the concentration at half-maximal activity (AC50) was 2.59 µM [rising, single point].
For the compound `COc1ccccc1N1C(=O)C2ON(c3ccccc3)C(c3ccc(N(C)C)cc3)C2C1=O` (stereo not drawn), the cell number change is -24.4%. The AC50 under setting [1] was 23.1 µM [falling, single point].
Regarding `O=C(CCN1C(=O)/C(=C/c2ccc(F)cc2)SC1=S)NC1CCS(=O)(=O)C1` (stereo not drawn), the cell number change amounted to 14.2%. Besides, the AC50 under setting [1] was 18.4 µM [falling, single point].
As for `COc1cccc2c(=O)cc(C)n(CC(=O)Nc3ccccc3C)c12`, the cell number change was -33.2%. The AC50 under setting [1] is 0.092 µM [rising, full curve].
On to `Cc1cc(C(=O)Cn2cc([N+](=O)[O-])ccc2=O)c(C)n1CC1CCCO1` (stereo not drawn), for which the cell number change is -14.6%.
As for `Cc1cccc(C)c1NC(=O)C(Cl)C(=O)c1ccccc1` (stereo not drawn), the cell number change is -18.3%. Also, the AC50 under setting [1] was 0.58 µM [rising, single point].
Turning to `CCOC(=O)c1c(NC(=O)CSc2nc3ccccc3o2)sc(C(C)=O)c1C`, the cell number change stood at 19.8%. In addition, the AC50 under setting [1] was 1.46 µM [rising, full curve].
Consider `Cc1ccc(SCc2nc3ccccc3n2CC(=O)Nc2ccc(Cl)cc2)cc1`, for which the AC50 under setting [1] is 7.31 µM [falling, partial curve, poor fit].
Regarding `COc1cccc(NC(=O)C/C(C)=N/NC(=O)c2ccccc2Cl)c1`, the cell number change was 9.35%. For the same compound, the AC50 under setting [1] is 16.4 µM [rising, single point].
Regarding `CCN(CC(=O)Nc1c(F)cccc1F)C(=O)C1CC(=O)N(c2ccc3c(c2)OCCO3)C1` (stereo not drawn), the cell number change is -17.3%.
For the compound `CC1CCCN(S(=O)(=O)c2ccc(Cl)s2)C1` (stereo not drawn), the cell number change amounted to 8.12%. Moreover, under setting [1], the AC50 is 6.51 µM [falling, single point].
For the compound `CCC(=O)NC(Cc1ccccc1)c1ccc2c(c1)OCCCO2` (stereo not drawn), the cell number change was 13%. Moreover, the AC50 under setting [2] was 4.11 µM [rising, partial curve, poor fit].
As for `CCOc1ccccc1NC(=O)c1cccc(NC(=O)C2CCCC2)c1`, the cell number change is -36.5%. Further, under setting [2], the AC50 is 29.1 µM [falling, single point]. Further, under setting [1], the AC50 was 2.06 µM [falling, partial curve].
As to `Cc1nc(Nc2cc(F)ccc2C)c2nnn(Cc3ccccc3)c2n1`, the cell number change is -16.1%.
Take `CCOc1ccc(OCCn2c(=S)[nH]c3c(N)ncnc32)cc1`: the half-maximal activity concentration (AC50) under setting [1] is 0.651 µM [rising, single point].
On to `Cc1[nH]nc2c1C(c1cc(Br)cs1)C(C#N)=C(N)O2` (stereo not drawn), for which the cell number change came out at 10.8%. For the same compound, the AC50 under setting [2] is 3.26 µM [rising, partial curve]. Besides, the AC50 under setting [1] was 2.91 µM [rising, partial curve].
As to `Cc1nnc(-c2ccco2)c2cn(-c3cccc(Br)c3)nc12`, the cell number change amounted to 50%. The concentration at half-maximal activity (AC50) under setting [2] is 18.4 µM [rising, single point]. Besides, the AC50 under setting [1] was 0.82 µM [rising, full curve, poor fit].
Regarding `CC(C)Cc1cc(C(=O)N2CCC(N3CCC(C(=O)N4CCCC4)CC3)CC2)n[nH]1`, the cell number change amounted to 11.9%. For the same compound, the AC50 under setting [1] was 29.1 µM [rising, single point].
`CCN(CC)C(=O)COc1ccc2oc(C)c(C(=O)OC(C)C)c2c1`: the AC50 under setting [1] was 3.26 µM [rising, partial curve].
`Clc1ccc(-c2csc(N3CCCCCC3)n2)cc1`: the cell number change is -31%. Besides, the AC50 under setting [2] was 7.31 µM [falling, partial curve]. The AC50 under setting [1] is 29.1 µM [falling, single point].
Turning to `Cc1cccc(N(CC(=O)Nc2ccc(F)cc2)S(C)(=O)=O)c1`, the cell number change came out at 52.6%. For the same compound, under setting [2], the AC50 is 20.6 µM [rising, single point].
With `O=C(COC(=O)c1ccc(NS(=O)(=O)c2cccs2)cc1)NCc1ccco1`, the cell number change is -16%. The AC50 under setting [1] was 0.517 µM [falling, full curve, poor fit].
For `Cc1ccc(C(=O)N2CCN(C(=O)CN3CCCC3)C2)cc1`, the cell number change was -3.46%.
Still for that read-out and setting: the result for `Cc1ccccc1OCCSc1nnc(-c2ccncc2)n1C` reads -8.54%.
Consider `O=C(Nc1cc(Cl)cc(Cl)c1)c1cccc(OC(F)F)c1`, for which the cell number change was -36.5%. In addition, the AC50 under setting [2] was 18.4 µM [falling, single point]. Under setting [1], the AC50 is 18.4 µM [falling, single point].
With `Cn1c(=O)oc2cc(S(=O)(=O)N3CCCC(C(=O)Nc4ccccn4)C3)ccc21` (stereo not drawn), the cell number change was -1.09%. Besides, the AC50 under setting [1] is 0.00517 µM [rising, full curve, poor fit].
Turning to `CCc1noc(C)c1C(=O)N(C)CC(=O)Nc1ccccc1Br`, the cell number change came to 26.2%. Moreover, the AC50 under setting [1] was 18.4 µM [rising, single point].
On to `CCN(C(=O)COC(=O)c1ccccc1SCC(=O)NC1CCCCCCC1)C1CCS(=O)(=O)C1` (stereo not drawn), for which the half-maximal activity concentration (AC50) under setting [1] is 0.00461 µM [falling, full curve, poor fit].
For the compound `O=C(CCCN1C(=O)NC2(CCCC2)C1=O)NCc1ccccc1`, the cell number change came to 23.9%. Moreover, the AC50 under setting [1] is 32.6 µM [rising, single point].
Consider `Cc1cc(=O)[nH]c(SCC(=O)Nc2nc(-c3ccccc3)cs2)n1`, for which the cell number change was found to be 2.19%. Also, under setting [1], the AC50 is 29.1 µM [rising, single point].
On to `N#Cc1ccccc1NC(=O)c1cc(=O)c2ccccc2o1`, for which the cell number change is -14%. Besides, under setting [1], the AC50 was 0.103 µM [rising, full curve, poor fit].
On to `COc1ccc(C2=NCCn3c2c2ccc(C(F)(F)F)cc2[n+]3[O-])cc1`, for which the cell number change was -15.8%. Also, the AC50 under setting [2] is 4.11 µM [falling, single point].
As to `COc1ccc(NC(=O)CSc2ccccc2)cc1S(=O)(=O)N1CCCCC1`, under setting [2], the AC50 is 0.58 µM [rising, single point].
For `O=C(O)c1ccccc1-c1ccccc1C(=O)Nc1ccc2c(c1)[nH]c(=O)c1ccccc12`, the cell number change is 7.04%. The AC50 under setting [1] was 23.1 µM [rising, partial curve, poor fit].
For `CN(CC(=O)Nc1ccc(Cl)c(C(F)(F)F)c1)C(=O)CCN1C(=O)C2CC=CCC2C1=O` (stereo not drawn), the cell number change was found to be 11.2%.
Take `O=C(O)c1ccc(NC2CC(=O)N(Cc3ccccc3)C2=O)cc1` (stereo not drawn): the cell number change was -4.75%. For the same compound, under setting [2], the AC50 is 1.84 µM [falling, partial curve].
On to `OC12CCCCC1C(c1ccc3c(c1)OCO3)N(Cc1ccccc1F)CC2` (stereo not drawn), for which the cell number change is -31.1%. Moreover, the AC50 under setting [2] was 20.6 µM [falling, single point].
For `N#Cc1ccc(CN2CCN(CC(=O)NCCc3ccc(Cl)cc3Cl)CC2)cc1`, the cell number change was -21.1%. For the same compound, the AC50 under setting [1] is 5.62 µM [falling, single point].
For the compound `Cc1ccccc1NC(=O)CCN1CCN(C/C=C/c2ccccc2)CC1`, the cell number change was -4.35%.
Take `Cc1ccc(NC(=O)CN(C)C(=O)c2cc(-c3ccco3)nc3ccccc23)cc1`: the cell number change stood at 66.7%. Under setting [2], the AC50 is 1.03 µM [rising, full curve, poor fit].
With `COc1ccc2oc(C(=O)OC(C)C(=O)Nc3ccc(N4CCOCC4)cc3)c(C)c2c1` (stereo not drawn), the AC50 under setting [1] was 8.2 µM [falling, partial curve].
For `Cc1ccc(NC(=S)N2CCCC2)cc1Cl`, the cell number change is -5.2%.
Consider `Cc1cc(NC(=O)C2CCN(S(=O)(=O)Cc3ccccc3)CC2)ccc1-n1cnnn1`, for which the cell number change was -29%. In addition, the AC50 under setting [1] was 11.6 µM [falling, partial curve, poor fit].
For `CCOC(=O)c1cn(CC(=O)Nc2cccc(Cl)c2C)nn1`, the cell number change was 10.3%. The AC50 under setting [1] was 2.06 µM [rising, full curve].
Take `CC(C)(C)NC(=O)/C(=C\c1ccco1)NC(=O)c1ccco1`: the cell number change was 35.1%. The AC50 under setting [2] was 0.00461 µM [rising, full curve, poor fit].
Take `CC(C)C(=O)Nc1ccc(N2CCCC2)cc1`: the AC50 under setting [1] is 18.4 µM [rising, partial curve].
Regarding `CC1CCN(C(=O)c2cc(Cl)ccc2NC(=O)c2ccco2)CC1`, the cell number change turned out to be 18.9%.
For `Cc1ccc(NC(=O)Cc2ccc(Cl)cc2)cc1S(=O)(=O)N1CCCCCC1`, the cell number change is -5.28%. The AC50 under setting [2] is 2.31 µM [rising, partial curve]. For the same compound, the AC50 under setting [1] is 2.06 µM [rising, partial curve].
Consider `CN1CCCCC1=NCCCn1cnc2c1c(=O)n(C)c(=O)n2C`, for which the cell number change came to 119%. For the same compound, the AC50 under setting [2] was 20.6 µM [rising, single point]. Also, the AC50 under setting [1] was 29.1 µM [rising, single point].

These data come from PubChem BioAssay AID2685 (National Center for Advancing Translational Sciences (NCATS), 2010).
